# Source: PMC2845627
# These are yes or no findings as the source states them, for the method shown. For some of these results: Where a sequence is shown, tags or fusion partners need not be part of it.
# T1: AtGyrA (LexA DNA-binding domain fusion) (A. thaliana) (UniProt Q9CAF6)
# T1 sequence: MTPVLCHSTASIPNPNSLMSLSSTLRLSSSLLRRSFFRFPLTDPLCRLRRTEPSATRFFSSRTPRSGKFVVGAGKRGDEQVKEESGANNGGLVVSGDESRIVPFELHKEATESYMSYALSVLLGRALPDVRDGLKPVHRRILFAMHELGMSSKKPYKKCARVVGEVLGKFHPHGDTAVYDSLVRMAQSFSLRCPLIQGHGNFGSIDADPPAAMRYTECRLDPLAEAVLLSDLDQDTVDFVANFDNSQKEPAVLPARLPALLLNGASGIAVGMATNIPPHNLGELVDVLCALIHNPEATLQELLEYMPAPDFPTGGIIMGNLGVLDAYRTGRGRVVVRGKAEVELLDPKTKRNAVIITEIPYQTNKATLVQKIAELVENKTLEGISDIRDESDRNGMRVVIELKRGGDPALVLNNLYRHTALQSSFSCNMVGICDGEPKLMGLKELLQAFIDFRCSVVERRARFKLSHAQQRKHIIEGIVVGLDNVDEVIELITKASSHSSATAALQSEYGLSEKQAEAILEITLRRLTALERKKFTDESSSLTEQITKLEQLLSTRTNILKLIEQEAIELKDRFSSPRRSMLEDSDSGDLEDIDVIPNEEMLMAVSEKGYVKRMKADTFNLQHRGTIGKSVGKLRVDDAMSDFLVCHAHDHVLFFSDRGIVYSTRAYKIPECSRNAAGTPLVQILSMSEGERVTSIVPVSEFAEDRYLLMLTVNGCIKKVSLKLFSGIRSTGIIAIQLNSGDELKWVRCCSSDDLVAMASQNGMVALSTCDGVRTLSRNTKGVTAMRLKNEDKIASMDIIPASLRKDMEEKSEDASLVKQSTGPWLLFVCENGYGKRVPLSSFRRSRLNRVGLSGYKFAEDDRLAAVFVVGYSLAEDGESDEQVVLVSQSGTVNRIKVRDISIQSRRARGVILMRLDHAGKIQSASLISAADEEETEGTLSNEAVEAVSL
# T2: AtGyrB3 (two-hybrid fusions, Matchmaker LexA system) (A. thaliana), Q8VY11
# T2 chain: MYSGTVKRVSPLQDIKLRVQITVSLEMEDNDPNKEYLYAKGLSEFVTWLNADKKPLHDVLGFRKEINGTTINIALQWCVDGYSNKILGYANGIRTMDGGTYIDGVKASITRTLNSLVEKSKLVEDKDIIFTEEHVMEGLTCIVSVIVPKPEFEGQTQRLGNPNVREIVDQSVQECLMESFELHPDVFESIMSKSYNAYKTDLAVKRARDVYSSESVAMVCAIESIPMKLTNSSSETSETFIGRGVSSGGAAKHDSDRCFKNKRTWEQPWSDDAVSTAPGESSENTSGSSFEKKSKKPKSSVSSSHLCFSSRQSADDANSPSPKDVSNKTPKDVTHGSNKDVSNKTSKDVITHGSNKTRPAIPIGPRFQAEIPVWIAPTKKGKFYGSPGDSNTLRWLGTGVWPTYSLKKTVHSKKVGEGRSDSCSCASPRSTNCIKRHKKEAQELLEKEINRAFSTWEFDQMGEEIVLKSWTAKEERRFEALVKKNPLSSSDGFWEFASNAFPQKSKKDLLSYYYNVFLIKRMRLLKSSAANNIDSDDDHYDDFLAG
# T3: AtGyrA (Hybrigenics two-hybrid service) (A. thaliana) (UniProt Q9CAF6)
# T3 sequence: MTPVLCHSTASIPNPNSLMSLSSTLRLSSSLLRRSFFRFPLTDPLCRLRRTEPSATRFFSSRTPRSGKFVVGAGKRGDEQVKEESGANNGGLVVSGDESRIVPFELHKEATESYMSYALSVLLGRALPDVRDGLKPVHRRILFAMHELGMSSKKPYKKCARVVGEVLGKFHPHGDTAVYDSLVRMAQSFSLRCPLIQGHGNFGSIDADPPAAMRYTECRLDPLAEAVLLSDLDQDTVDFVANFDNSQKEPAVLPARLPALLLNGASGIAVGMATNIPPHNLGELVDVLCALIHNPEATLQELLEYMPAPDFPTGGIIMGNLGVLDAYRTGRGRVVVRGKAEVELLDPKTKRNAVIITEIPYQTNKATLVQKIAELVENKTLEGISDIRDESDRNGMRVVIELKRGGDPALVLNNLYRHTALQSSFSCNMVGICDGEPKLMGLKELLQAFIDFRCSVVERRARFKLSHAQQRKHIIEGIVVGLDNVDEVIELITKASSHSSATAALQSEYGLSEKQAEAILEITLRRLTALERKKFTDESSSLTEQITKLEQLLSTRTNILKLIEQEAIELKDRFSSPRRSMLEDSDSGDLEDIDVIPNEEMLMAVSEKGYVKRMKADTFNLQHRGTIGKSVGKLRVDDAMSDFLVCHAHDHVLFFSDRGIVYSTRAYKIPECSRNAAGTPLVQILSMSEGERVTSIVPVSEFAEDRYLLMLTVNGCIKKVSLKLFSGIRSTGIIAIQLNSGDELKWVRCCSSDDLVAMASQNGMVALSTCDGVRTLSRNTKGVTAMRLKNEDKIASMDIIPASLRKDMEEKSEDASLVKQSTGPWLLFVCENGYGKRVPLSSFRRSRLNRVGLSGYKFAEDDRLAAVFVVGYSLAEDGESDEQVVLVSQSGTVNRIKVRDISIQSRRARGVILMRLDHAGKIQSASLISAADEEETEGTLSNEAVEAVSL
# T4: AtGyrB3 (Hybrigenics two-hybrid service) (A. thaliana) (UniProt Q8VY11)
# T4 sequence: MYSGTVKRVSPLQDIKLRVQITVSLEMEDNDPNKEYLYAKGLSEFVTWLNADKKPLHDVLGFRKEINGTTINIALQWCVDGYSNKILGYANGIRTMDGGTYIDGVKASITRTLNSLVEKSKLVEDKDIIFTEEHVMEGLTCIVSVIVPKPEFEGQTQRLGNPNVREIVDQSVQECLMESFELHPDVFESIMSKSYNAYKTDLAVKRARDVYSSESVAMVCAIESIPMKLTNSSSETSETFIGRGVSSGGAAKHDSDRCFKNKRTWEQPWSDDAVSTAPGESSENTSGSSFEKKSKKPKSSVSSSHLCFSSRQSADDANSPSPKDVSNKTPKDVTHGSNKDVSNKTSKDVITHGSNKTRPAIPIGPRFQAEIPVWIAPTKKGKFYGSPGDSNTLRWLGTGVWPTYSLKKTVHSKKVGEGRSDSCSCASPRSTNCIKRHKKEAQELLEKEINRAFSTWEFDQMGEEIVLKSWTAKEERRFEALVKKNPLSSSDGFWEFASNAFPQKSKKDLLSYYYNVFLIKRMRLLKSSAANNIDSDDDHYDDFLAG
# B1: AtGyrB3 (two-hybrid fusions, Matchmaker LexA system) (protein, UniProt Q8VY11 1-546)
# chain: MYSGTVKRVSPLQDIKLRVQITVSLEMEDNDPNKEYLYAKGLSEFVTWLNADKKPLHDVLGFRKEINGTTINIALQWCVDGYSNKILGYANGIRTMDGGTYIDGVKASITRTLNSLVEKSKLVEDKDIIFTEEHVMEGLTCIVSVIVPKPEFEGQTQRLGNPNVREIVDQSVQECLMESFELHPDVFESIMSKSYNAYKTDLAVKRARDVYSSESVAMVCAIESIPMKLTNSSSETSETFIGRGVSSGGAAKHDSDRCFKNKRTWEQPWSDDAVSTAPGESSENTSGSSFEKKSKKPKSSVSSSHLCFSSRQSADDANSPSPKDVSNKTPKDVTHGSNKDVSNKTSKDVITHGSNKTRPAIPIGPRFQAEIPVWIAPTKKGKFYGSPGDSNTLRWLGTGVWPTYSLKKTVHSKKVGEGRSDSCSCASPRSTNCIKRHKKEAQELLEKEINRAFSTWEFDQMGEEIVLKSWTAKEERRFEALVKKNPLSSSDGFWEFASNAFPQKSKKDLLSYYYNVFLIKRMRLLKSSAANNIDSDDDHYDDFLAG
# B2: AtGyrB3 (two-hybrid fusions, Matchmaker LexA system), Q8VY11 1-546 (protein)
# chain: MYSGTVKRVSPLQDIKLRVQITVSLEMEDNDPNKEYLYAKGLSEFVTWLNADKKPLHDVLGFRKEINGTTINIALQWCVDGYSNKILGYANGIRTMDGGTYIDGVKASITRTLNSLVEKSKLVEDKDIIFTEEHVMEGLTCIVSVIVPKPEFEGQTQRLGNPNVREIVDQSVQECLMESFELHPDVFESIMSKSYNAYKTDLAVKRARDVYSSESVAMVCAIESIPMKLTNSSSETSETFIGRGVSSGGAAKHDSDRCFKNKRTWEQPWSDDAVSTAPGESSENTSGSSFEKKSKKPKSSVSSSHLCFSSRQSADDANSPSPKDVSNKTPKDVTHGSNKDVSNKTSKDVITHGSNKTRPAIPIGPRFQAEIPVWIAPTKKGKFYGSPGDSNTLRWLGTGVWPTYSLKKTVHSKKVGEGRSDSCSCASPRSTNCIKRHKKEAQELLEKEINRAFSTWEFDQMGEEIVLKSWTAKEERRFEALVKKNPLSSSDGFWEFASNAFPQKSKKDLLSYYYNVFLIKRMRLLKSSAANNIDSDDDHYDDFLAG
# B3: AtGyrB2 (Hybrigenics two-hybrid service) (protein, UniProt Q94BZ7 1-732)
# chain: MALLQRASYLRLYYLRLMGSRPRLFSSSLSPALHRHSSTLSSPPFSSPSPSFRLKFQLTSVLSQRLIQRNAISSRFLSTEASQETTTSKGYSSEQIQVLEGLDPVRKRPGMYIGSTGSRGLHHLVYEILDNAIDEAQAGYASKVDVVLHADGSVSVVDNGRGIPTDLHPATKKSSLETVLTVLHAGGKFGGTSSGYSVSGGLHGVGLSVVNALSEALEVSVWRDGMEHKQNYSRGKPITTLTCRVLPLESKGTKGTSIRFWPDKEVFTTAIEFDHNTIAGRIRELAFLNPKVTISLKKEDDDPEKTQYSEYSFAGGLTEYVSWLNTDKNPIHDVLGFRREINGATVDVALQWCSDAYSDTMLGYANSIRTIDGGTHIEGVKASLTRTLNTLAKKSKTVKEKDISLSGEHVREGLTCIVSVKVPNPEFEGQTKTRLGNPEVRKIVDQSVQEYLTEFLELHPDILESIISKSLNAYKAALAAKRARELVRSKSVLKSSSLPGKLADCSSTDPEVSEIFIVEGDSAGGSAKQGRDRRFQAILPLRGKILNIERKDEAAMYKNEEIQNLILGLGLGVKGEDFKKENLRYHKIIILTDADVDGAHIRTLLLTFFFRYQRALFDAGCIYVGVPPLFKVERGKNAQYCYDDADLKKITSNFPANASYNIQRFKGLGEMMPEQLWETTMNPETRILKQLVVDDIAEANMTFSSLMGARVDVRKELIKNAATRINLQRLDI
# Experiments:
# [1] = target: T1, AtGyrA (LexA DNA-binding domain fusion) (A. thaliana); experiment: two-hybrid; Matchmaker LexA Two-Hybrid System (Clontech); bait fused to the LexA DNA-binding domain, prey fused to the B42 activation domain
# [2] = target: T2, AtGyrB3 (two-hybrid fusions, Matchmaker …); experiment: as above; settings: remark: other sources report otherwise
# [3] = target: T3, AtGyrA (Hybrigenics two-hybrid service) (A. thaliana); experiment: two-hybrid; yeast two-hybrid service (Hybrigenics); AtGyrA or AtGyrB3 used as the bait
# [4] = target: T4, AtGyrB3 (Hybrigenics two-hybrid service) (A. thaliana); experiment: as above
binder,measurement,setting,value
B1,binding,[1],no binding
B2,binding,[2],no binding
B3,binding,[3],no binding
same,binding,[4],no binding
